Laboratory results published in article PMC6928011.
No constants are given. Whether binding was seen depends on the method and setting. In cells and extracts the contact can be indirect. Some binding calls cover weakened binding; strength is not graded here. Where a sequence is shown, tags or fusion partners need not be part of it.

Biological target: T1, TagRFP657-MamK translational fusion protein (not stated (expressed in Magnetospirillum gryphiswaldense MSR-1)) (UniProt Q6NE59)
T1 sequence: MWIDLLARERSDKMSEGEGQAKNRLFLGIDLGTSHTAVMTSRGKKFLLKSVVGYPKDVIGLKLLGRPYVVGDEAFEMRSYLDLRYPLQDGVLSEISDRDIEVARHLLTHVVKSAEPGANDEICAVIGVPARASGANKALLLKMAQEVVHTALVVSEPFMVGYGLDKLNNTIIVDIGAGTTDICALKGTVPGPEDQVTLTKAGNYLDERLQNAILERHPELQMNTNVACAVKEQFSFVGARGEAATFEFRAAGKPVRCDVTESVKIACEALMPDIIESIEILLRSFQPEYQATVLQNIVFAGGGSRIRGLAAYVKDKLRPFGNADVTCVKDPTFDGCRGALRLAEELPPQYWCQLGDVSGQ
Experiment: FRET or BRET; FLIM-FRET (TCSPC) in living MSR-1 cells embedded in 1% low-melt agarose, BR buffer; donor phiYFP on MamJ, acceptor TagRFP657 on MamK; measured before and after application of a magnetic torque (50 mT, 10 rotations of two magnets up to 270°)

B1: MamJ-phiYFP translational fusion protein (protein, UniProt V6F519 1-466)
chain: MAKNRRDRGTDLPGDGDQKISTGPEIVSVTVHPSPNLAAAAKPVQGDIWASLLESSPWSANQGGLVETAQPPSAPIRSQDPVPVADLVNRWSQPIWRTAPLAGNAESSEEGVVAPSLTQSDSVLAVSDLVIDVQPETDAEVEVSIEPEPALVEPVIEIEAEAAEVEPEPAPVADLVNRWAQPIWRTAPLAGNAESSEEGVVAPSLTQSDSVLAVSDLVIDVQPEANAEVEVSIEPEPALVEPVIEIEAEAAEVEPEPAPVEPVIEIEAEAAEVEPEPAPVEPVIEIEAEAAEVEPEPAPVEPAIEIEAIRVELEPVLIDEVVELVTEFEYSQAESVASADLIANPAPAESSRLAELLDEAAAIAAPAVAVAVEATRQPNKITASVKKRAPVQEVPVEDLLGGIFGVAGSAVRGVFTIGGGFVDGVVKGGRLVGSNVVAGTRRLAQTIEVSCGSCSSPKCDAEDKNK
In the case of B1, the binding is reported as “binds”.
